Consider 1 molecule from paper PMC10980705.

These are yes or no findings as the source states them, for the method shown. Some entries that bind do so weakly or less than the wild type.

The test deals with T1, WT monomer peptide 295…311 of tau.
T1 chain: DNIKHVPGGGSVQIVYK
The test can be described thus: ThT fluorescence + TEM (fibril formation); 200 μM WT monomer seeded by 2 μM TL dimer; 1 x PBS, 25 μM ThT, 37C, shaking at 800 rpm 10 s before each reading, followed up to 144 h; fibrils called only with ThT signal change and fibrils in TEM; both purified. As to conditions: remark: other sources report otherwise.

B1: WT monomer peptide 295…311 of tau (peptide)
peptide: DNIKHVPGGGSVQIVYK
modifications: here or on the partner: N-terminal acetylation; C-terminal amidation; N-terminal acetylation; C-terminal amidation
As to B1, the binding entry is “binds”.
